Experimental data published in PMC4316587.
Results are given in words; binding and its absence hold for the method and conditions named. For part of these data: In cells and extracts the contact can be indirect. Some entries that bind do so weakly or less than the wild type.

Sequences of proteins named here, by UniProt entry; tags and fusion partners are left off. Residues count along the entry.
UniProt P07237, residues 18-508: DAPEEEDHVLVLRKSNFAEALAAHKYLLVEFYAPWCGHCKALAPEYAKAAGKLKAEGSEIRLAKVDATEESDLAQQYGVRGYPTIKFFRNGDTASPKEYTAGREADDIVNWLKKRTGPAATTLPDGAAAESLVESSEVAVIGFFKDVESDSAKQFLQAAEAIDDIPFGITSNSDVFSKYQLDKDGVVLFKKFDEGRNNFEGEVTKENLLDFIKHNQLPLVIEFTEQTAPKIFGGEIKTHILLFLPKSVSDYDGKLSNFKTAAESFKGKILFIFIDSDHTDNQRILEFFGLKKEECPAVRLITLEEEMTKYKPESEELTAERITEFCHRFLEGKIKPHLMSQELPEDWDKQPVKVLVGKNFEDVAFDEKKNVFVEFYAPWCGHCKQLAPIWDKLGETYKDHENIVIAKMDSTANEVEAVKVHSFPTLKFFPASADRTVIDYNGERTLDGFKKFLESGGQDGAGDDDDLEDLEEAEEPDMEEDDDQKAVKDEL

How the values were obtained:
[1] = target: CRT-GFP (green fluorescent protein tagged calreticulin), purified from bacteria (UniProt P27797); assay: FRET or BRET; in vitro; CRT-GFP donor and mCherry-tagged acceptor both at 12 μM; 50 mM HEPES pH 7.2, 100 mM KCl, 2 mM CaCl2, EGTA added to give 8 to 2,000 μM free Ca2+; ratio of emission at 630 nm and 520 nm, excited at 485 nm; both purified
[2] = target: CRT-GFP fusion protein, expressed in cells (UniProt P27797); assay: FRET or BRET; FLIM-FRET (GFP donor lifetime) in living transfected AR42j pancreatic acinar cells, untreated or treated with cholecystokinin (CCK, 10 μM)
[3] = target: CRT-GFP fusion protein, expressed in cells (UniProt P27797); assay: FRET or BRET; FLIM-FRET (GFP donor lifetime) in living transfected COS7 cells, untreated or treated with thapsigargin to deplete ER calcium; association also seen in DTT-treated cells (Figure S4)

PDI1A-mCherry (monomeric Cherry tagged protein disulfide isomerase 1A), purified from bacteria (from UniProt P07237 18-508) (enzyme)
binding [1]: binds

PDI1A-mCherry, ER-localized, expressed in cells (from UniProt P07237 18-508) (enzyme)
binding [2]: binds
binding [3]: binds
